According to PubChem BioAssay AID743255 (National Center for Advancing Translational Sciences (NCATS), 2014):
The campaign covered roughly 390,000 compounds. About 910 (0.23%) were called active. The shares of active, inactive and inconclusive entries below differ from those in the screen. The call rests on the fitted dose curve; in most records, active means well fitted inhibition curve with a large enough effect; inconclusive means small, poorly fitted or top-dose-only effect; inactive means no such curve, though single readings can be large or run the other way. Potencies of inconclusive entries are doubtful fits and often do not repeat.
Further: nearly all actives have a fitted effect of over 60% in size.
Potency means the concentration at half of the fitted maximal effect.

Protein sequences, listed by entry. Tags and fused reporters are not part of them. Lines headed by an entry give the natural chain unless they say otherwise; changes in a name come on top.
UniProt O94782: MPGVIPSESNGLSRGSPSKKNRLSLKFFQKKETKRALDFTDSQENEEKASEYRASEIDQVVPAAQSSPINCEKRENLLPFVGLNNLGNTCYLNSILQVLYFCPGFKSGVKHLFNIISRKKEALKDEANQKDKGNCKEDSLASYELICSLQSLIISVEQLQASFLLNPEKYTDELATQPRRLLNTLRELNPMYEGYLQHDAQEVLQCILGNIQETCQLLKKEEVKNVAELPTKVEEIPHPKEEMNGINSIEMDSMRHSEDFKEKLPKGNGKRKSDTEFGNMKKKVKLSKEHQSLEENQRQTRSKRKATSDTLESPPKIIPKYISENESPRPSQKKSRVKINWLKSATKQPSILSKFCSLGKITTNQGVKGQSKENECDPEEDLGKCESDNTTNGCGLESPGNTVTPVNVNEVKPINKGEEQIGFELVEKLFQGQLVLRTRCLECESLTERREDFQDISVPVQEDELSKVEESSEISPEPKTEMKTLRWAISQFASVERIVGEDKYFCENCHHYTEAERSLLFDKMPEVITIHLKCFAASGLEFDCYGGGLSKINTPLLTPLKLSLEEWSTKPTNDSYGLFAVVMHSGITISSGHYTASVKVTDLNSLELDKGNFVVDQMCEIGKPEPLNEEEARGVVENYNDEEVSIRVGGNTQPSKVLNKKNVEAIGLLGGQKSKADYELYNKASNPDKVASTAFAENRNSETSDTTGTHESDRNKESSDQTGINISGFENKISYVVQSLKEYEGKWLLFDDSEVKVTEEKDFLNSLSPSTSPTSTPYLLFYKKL

These molecules were tested against Ubiquitin carboxyl-terminal hydrolase 1 (Homo sapiens) (UniProt O94782) (assay: Inhibitors of USP1/UAF1: Primary Screen). Conditions: recombinant USP1/UAF1, Ub-Rhodamine cleavage fluorescence; series mostly up to 57.1 µM.
Summary of the method: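 USP1/UAF1 complex (1 nM) preincubated 15 min at room temperature with compound, then Ub-Rho substrate (150 nM final) added. Kinetic fluorescence at 480/540 nm over 6 reads at 60 s intervals; 50 mM HEPES pH 7.8, 0.5 mM EDTA, 0.1 mg/ml BSA, 1 mM TCEP, 0.01% Tween-20.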
`O=C(NNC(=O)c1ccncc1)Nc1ccc(Br)cc1` was tested, and the Potency was inconclusive: 56.2 µM [inhibitor, partial curve, poor fit].
`Cc1ccc(C(=O)N2c3nc(-c4ccco4)nn3C3(CCCCC3)[C@@H]3CCCC[C@@H]32)cc1` was tested, and the Potency was “inactive”.
With `O=C(NCC1CCCO1)c1ccccc1S(=O)(=O)c1ccc([N+](=O)[O-])cc1` (stereo unspecified) the Potency was inconclusive: 4.47 µM [inhibitor, partial curve].
`COc1ccc(NCC(=O)Nc2c(C)cccc2C)cc1S(=O)(=O)N1CCOCC1` was tested, and the Potency was inconclusive: 0.282 µM [inhibitor, full curve, poor fit].
For `CCOC(=O)N1CCC(NC(=O)c2cnn(-c3ccccc3)c2C2CCN(C(=O)OC(C)(C)C)CC2)CC1`, the Potency was inconclusive: 1.12 µM [inhibitor, full curve].
`O=C(CN1C(=O)/C(=C/c2ccco2)SC1=S)Nc1ccc(O)c(C(=O)O)c1` was tested, and the Potency was inconclusive: 5.01 µM [inhibitor, partial curve].
In the case of `CSc1ncccc1C(=O)OCC(=O)N1CCOCC1`, the Potency is reported as inconclusive: 31.6 µM [inhibitor, single point].
`COc1ccccc1/C=C(\C#N)c1nc(-c2cc3ccccc3oc2=O)cs1` was tested, and the Potency was inconclusive: 3.55 µM [inhibitor, partial curve].
In the case of `N#Cc1ccccc1OCC(=O)Nc1nc(-c2ccccn2)cs1`, the Potency is reported as inconclusive: 0.126 µM [inhibitor, full curve, poor fit].
For `COc1ccc(C(=O)Nc2cccc(-c3ccc(N4CCOCC4)nn3)c2)cc1`, the Potency was inconclusive: 8.91 µM [inhibitor, partial curve, poor fit].
`C=C[C@@H]1c2ccccc2N(S(=O)(=O)c2ccc(C)cc2)[C@H](c2ccc(C(=O)OC)cc2)C1(C#N)C#N` was tested, and the Potency was inconclusive: 25.1 µM [inhibitor, partial curve].
With `COc1cccc(-c2nc3n(n2)C(c2ccccc2Cl)C(C(N)=O)=C(C)N3)c1` (stereo unspecified) the Potency was inconclusive: 15.8 µM [inhibitor, partial curve].
`CC(=O)Oc1ccc(C#C/C=C2\c3ccccc3C(=O)N2c2ccccc2)cc1` was tested, and the Potency was inconclusive: 63.1 µM [inhibitor, partial curve, poor fit].
With `CCc1ccc(NS(=O)(=O)c2ccc3[nH]c4c(c3c2)CCCCCC4)cc1` the Potency was inconclusive: 0.794 µM [inhibitor, full curve, poor fit].
With `O=[N+]([O-])c1cccc(S(=O)(=O)c2ccc(NCCO)c([N+](=O)[O-])c2)c1` the Potency was “inactive”.
`O=S(=O)(c1cc(C(F)(F)F)ccc1Cl)N1CCN(c2ccccn2)CC1` was tested, and the Potency was inconclusive: 39.8 µM [inhibitor, partial curve, poor fit].
In the case of `O=C(NCc1ccncc1)c1ccc(OCc2ccccc2)cc1`, the Potency is reported as inconclusive: 44.7 µM [inhibitor, partial curve, poor fit].
With `O=C(CSCc1ccc(F)cc1)NCc1ccc(F)cc1` the Potency was inconclusive: 35.5 µM [inhibitor, single point].
In the case of `O=C(Nc1ccc(Nc2ccncc2)cc1)c1ccc(Nc2ccnc3ccc([N+](=O)[O-])cc23)cc1[N+](=O)[O-]`, the Potency is reported as inconclusive: 44.7 µM [inhibitor, partial curve].
In the case of `COc1ccc(N2C(=O)CC(Sc3nnnn3-c3ccc(F)cc3)C2=O)cc1` (stereo unspecified), the Potency is reported as “inactive”.
With `COc1ccc(CNC(=O)COC(=O)/C=C/c2cccc(Cl)c2)cc1` the Potency was “inactive”.
For `CC(=O)Nc1cccc(N(C(=O)C2COc3ccccc3O2)C(C(=O)NC2CCCCC2)c2cn(C)nc2C)c1` (stereo unspecified), the Potency was inconclusive: 44.7 µM [inhibitor, partial curve, poor fit].
`O=C(CC(=O)c1cccs1)c1ccncc1` was tested, and the Potency was inconclusive: 7.08 µM [inhibitor, single point].
`Cc1ccccc1N1Cc2ccccc2C1=O` was tested, and the Potency was “inactive”.
For `COc1ccc(C)cc1NC(=O)CSc1nnc(COc2ccc(C)cc2)n1Cc1ccco1`, the Potency was inconclusive: 50.1 µM [inhibitor, partial curve, poor fit].
For `CCC1NC(=O)c2cc3ccccc3cc2-n2c1nc1cc(F)ccc1c2=O` (stereo unspecified), the Potency was inconclusive: 0.282 µM [inhibitor, full curve, poor fit].
For `CN(C)CCNC(=O)/C(=C/c1ccc(-c2ccc(Cl)cc2Cl)o1)NC(=O)c1ccccc1`, the Potency was inconclusive: 126 µM [inhibitor, partial curve, poor fit].
With `Cc1ccccc1NC(=S)NC1CCCC1` the Potency was inconclusive: 15.8 µM [inhibitor, partial curve].
`C[C@H](O)[C@@H]1C(=O)N2CCc3ccc(N4CCN(C)CC4)cc3[C@@H]2C[C@@H]1N(C)C(=O)NC1CCCCC1` was tested, and the Potency was inconclusive: 50.1 µM [inhibitor, partial curve, poor fit].
For `CC1(C)COC(c2ccccc2Cl)OC1`, the Potency was inconclusive: 4.47 µM [inhibitor, partial curve].
`CCCN(Cc1ccc(N(C)C)cc1)CC1CC1` was tested, and the Potency was “inactive”.
In the case of `COc1ccc2nc(NC(=O)c3ccc([N+](=O)[O-])o3)sc2c1`, the Potency is reported as inconclusive: 28.2 µM [inhibitor, partial curve].
For `COc1ccc(OC)c(-c2nnc(SCC(=O)N3CCCC3)o2)c1`, the Potency was inconclusive: 0.282 µM [inhibitor, full curve, poor fit].
`Cc1ccc(S(=O)(=O)NCCc2nnc3ccc(SCC(=O)Nc4c(C)cc(C)cc4C)nn23)cc1` was tested, and the Potency was inconclusive: 8.91 µM [inhibitor, partial curve, poor fit].
For `Cn1ncc(Cl)c1C(=O)NC(=S)Nc1sc2c(c1C#N)CCCCC2`, the Potency was “inactive”.
In the case of `COc1ccc(O)c(/C=N/N=C2/C(=O)Nc3ccccc32)c1`, the Potency is reported as inconclusive: 44.7 µM [inhibitor, partial curve].
`Cc1cccc(C2=NN(c3ccccc3)[C@@H](C(=O)N3CCOC3=O)[C@@H]2C)c1` was tested, and the Potency was inconclusive: 44.7 µM [inhibitor, partial curve, poor fit].
In the case of `Cc1ccc(C(=O)NCCCNC(=O)c2ccccn2)cc1`, the Potency is reported as inconclusive: 7.94 µM [inhibitor, single point].
With `N#Cc1cccn1-c1nccc(-c2cccs2)n1` the Potency was inconclusive: 2.82 µM [inhibitor, full curve, poor fit].
In the case of `CCc1ccc(NC(=S)Nn2cnnc2)cc1`, the Potency is reported as “inactive”.
For `Cc1ccc(CNC(=O)CCS(=O)(=O)c2ccc(Br)cc2)cc1`, the Potency was “inactive”.
`O=C(NCCc1ccccc1Cl)c1cc2ccccn2n1` was tested, and the Potency was inconclusive: 6.31 µM [inhibitor, single point].
In the case of `CCOC(=O)N1CCC(c2cc(=O)n(-c3ccccc3)[nH]2)CC1`, the Potency is reported as inconclusive: 0.282 µM [inhibitor, full curve, poor fit].
In the case of `COc1ncnc2c1N=C1CC(C)(C)CC(N)=C1S2`, the Potency is reported as inconclusive: 25.1 µM [inhibitor, partial curve].
For `CCOc1cc(/C=C(\C#N)C(=O)Nc2ccccc2C(=O)O)ccc1OC(=O)c1ccc(C)cc1`, the Potency was “inactive”.
In the case of `CCCCOC(=O)c1ccc(NC(=O)Nc2ccc(OC)c(OC)c2)cc1`, the Potency is reported as “inactive”.
For `CCC(C)C(NC(=O)/C(=C\c1ccccc1)NC(=O)c1ccc(OC)cc1)C(=O)O` (stereo unspecified), the Potency was inconclusive: 39.8 µM [inhibitor, partial curve].
`CCOC(=O)COc1cc(-n2c(=S)[nH]c3cc(OC)c(OC)cc3c2=O)c(Cl)cc1Cl` was tested, and the Potency was inconclusive: 22.4 µM [inhibitor, partial curve].
With `Clc1ccc(Cc2nc(-c3ccncc3)no2)cc1` the Potency was “inactive”.
For `CNc1cccc2c1C(=O)c1ccccc1C2=O`, the Potency was “inactive”.
`CCCN(CCC)C(=O)C1CCN(c2cc(C)nc3c(-c4ccc(Cl)cc4)c(C)nn23)CC1` was tested, and the Potency was inconclusive: 2.24 µM [inhibitor, full curve].
With `COc1cccc(C(=O)Nc2nc(-c3nnn(-c4cccc(Cl)c4C)c3C)ns2)c1` the Potency was “inactive”.
`O=C(Cn1cc(S(=O)(=O)Cc2ccccc2F)c2ccccc21)Nc1ccc(F)c(Cl)c1` was tested, and the Potency was inconclusive: 50.1 µM [inhibitor, partial curve, poor fit].
In the case of `Cc1nc2cc(N=NC3=C(O)CCCC3=O)ccc2s1`, the Potency is reported as “inactive”.
In the case of `CCN(CC)N=Nc1ccc(S(=O)(=O)N2CCSC2C(=O)O)cc1` (stereo unspecified), the Potency is reported as inconclusive: 0.501 µM [inhibitor, full curve, poor fit].
With `Cc1ccc(-c2c(C(=O)Nc3ccccc3F)oc(=O)c3ccccc23)cc1` the Potency was inconclusive: 28.2 µM [inhibitor, partial curve].
With `CCc1cccc2c(C(=S)N3CCOCC3)c[nH]c12` the Potency was inconclusive: 2.51 µM [inhibitor, full curve, poor fit].
With `CCCNC(=O)C(Cc1ccc(Cl)cc1)NC(=O)c1ccc(-c2ccccc2)cc1` (stereo unspecified) the Potency was inconclusive: 39.8 µM [inhibitor, partial curve].
In the case of `COc1ccc(OC)c(NC(=O)c2nnn(CC(=O)Nc3ccc(C(C)C)cc3)c2N)c1`, the Potency is reported as “inactive”.
In the case of `COc1ccc(NC(=O)Cn2cnc3c(nc4n3CCCCC4)c2=O)cc1Cl`, the Potency is reported as “inactive”.
`COc1ccc(N2CCN(C(=O)C3CCCN(S(=O)(=O)c4ccc5c(c4)oc(=O)n5C)C3)CC2)cc1` (stereo unspecified) was tested, and the Potency was inconclusive: 7.94 µM [inhibitor, partial curve].
With `Cc1nn(-c2ccccc2)c(N)c1C1(O)C(=O)N(C(C)C)c2ccccc21` (stereo unspecified) the Potency was “inactive”.
With `Fc1cccc(NCCc2c[nH]c3ccccc23)n1` the Potency was “inactive”.
For `O=C(COc1ccccc1)Nc1nc(-c2cccs2)cs1`, the Potency was “inactive”.
In the case of `COc1ccc(C(=O)NC(=O)COC(=O)C2CC2C)cc1` (stereo unspecified), the Potency is reported as “inactive”.
`O=C(NCc1ccccc1Cl)c1cnc2n(c1=O)CCS2` was tested, and the Potency was inconclusive: 35.5 µM [inhibitor, single point].
